Here are results for one sequence from article PMC4021073, “Breast tumor specific mutation in GATA3 affects physiological mechanisms regulating transcription factor turnover”.

This data set has as its system GATA3 DBD mutant D336fs. The data set can be described thus: EMSA. The note with it: 0.25-2 uM protein, 30 uM DNA, binds only at high protein; 28 mM Tris-HCl pH 7.5, 120 mM NaCl, 1 mM DTT, 0.8 mM 2-mercaptoethanol, 4% glycerol, 0.4 uM zinc sulfate; 10 min at 37 C; 10 ul; recombinant protein; label: none (ethidium bromide stain).

Construct, isoform or probe ends are uncertain for at least one entry. A weaker result is weaker than the reference pair of the same experiment.

With “AATGTCCATCTGATAAGACG (double strand) [GATA+ 20 bp]”, the binding result was “binds more weakly”.
